Measurements taken from patent publication US20170189504A1, “NOVEL PEPTIDES AND COMBINATION OF PEPTIDES FOR USE IN IMMUNOTHERAPY AGAINST VARIOUS CANCERS” (immatics biotechnologies GmbH, priority 2015, published 2017).

What was measured:
HLA-A*02 = experiment: Identification and relative LC-MS quantitation of HLA-A*02-presented tumor-associated peptides on tissue samples (presentation profiles, Tables 13A, 13B, 15, FIG. 1); set-up: species or system human; key to Presentation score NHL / Presentation score CLL / Presentation score BRCA / Presentation score AML / Presentation score GB / Presentation score NSCLC / Presentation score GBC_CCC / Presentation score UEC / Presentation score MEL / Presentation score OSCAR / Presentation score GC / Presentation score UBC / Presentation score OC / Presentation score RCC / Presentation score CRC / Presentation score PCA / Presentation score HCC / Presentation score PC / Presentation score SCLC: specifically presented on tumors (++++); very highly over-presented on tumors compared to a panel of normal tissues (+++); highly over-presented on tumors compared to a panel of normal tissues (++); over-presented on tumors compared to a panel of normal tissues (+); conditions: for Presentation score OSCAR: esophageal cancer, including cancer of the gastric-esophageal junction (N = 17) vs panel of normal tissues (N = 262); for Presentation score GC: gastric cancer (N = 29) vs panel of normal tissues (N = 262); for Peptide Presentation on cancer entities: HLA-A*02-binding tumor-associated peptides
source genes (mRNA) [1] = experiment: Gene and exon expression of source genes, TCGA tumor samples compared with normal tissue samples (Lonsdale, 2013) (Table 17); set-up: species or system human; conditions: for Target coverage: over-expression category of source gene, LAML: Acute Myeloid Leukemia (N = 173); for Target coverage: over-expression category of source gene, BLCA: Bladder urothelial carcinoma (N = 408); for Target coverage: over-expression category of source gene, BRCA: Breast cancer (N = 1104), cutoff more than 2-fold above highest 75% percentile of high and medium risk normal tissue samples; for Target coverage: over-expression category of source gene, READ: Colon and rectal adenocarcinoma (N = 167); for Target coverage: over-expression category of source gene, COAD: Colon and rectal adenocarcinoma (N = 462); for Target coverage: over-expression category of source gene, ESCA: Esophageal cancer (N = 185); for Target coverage: over-expression category of source gene, KICH: Kidney chromophobe (N = 66); for Target coverage: over-expression category of source gene, LUAD: Lung adenocarcinoma (N = 517); for Target coverage: over-expression category of source gene, LUSC: Lung squamous cell carcinoma (N = 503); for Target coverage: over-expression category of source gene, DLBC: Lymphoid neoplasm diffuse large B-cell lymphoma (N = 48); for Target coverage: over-expression category of source gene, OV: Ovarian serous cystadenocarcinoma (N = 309); for Target coverage: over-expression category of source gene, PRAD: Prostate adenocarcinoma (N = 498); for Target coverage: over-expression category of source gene, SKCM: Skin cutaneous melanoma (N = 473); for Target coverage: over-expression category of source gene, STAD: Stomach adenocarcinoma (N = 415); for Target coverage: over-expression category of source gene, UCEC: Uterine corpus endometrial carcinoma (N = 546); for Target coverage: over-expression category of source gene, GBM: Glioblastoma multiforme (N = 169); for Target coverage: over-expression category of source gene, LGG: Lower grade glioma (N = 534)
source genes (mRNA) [2] = experiment: Expression profiling of source genes by in-house RNASeq of tumor and normal tissues (Table 18, FIG. 2); set-up: species or system human; key: very highly over-expressed in tumors compared to a panel of normal tissues (+++); highly over-expressed in tumors compared to a panel of normal tissues (++); over-expressed in tumors compared to a panel of normal tissues (+); conditions: source gene of peptide; for Expression score BRCA: BRCA tumors vs panel of normal tissues; for Expression score AML: acute myeloid leukemia (N = 11) vs panel of normal tissues; for Expression score OSCAR: esophageal cancer incl. gastric-esophageal junction (N = 11) vs panel of normal tissues; for Expression score GB: glioblastoma (N = 24) vs panel of normal tissues; for Expression score NHL: non-Hodgkin lymphoma (N = 10) vs panel of normal tissues; for Expression score NSCLC: non-small cell lung cancer (N = 11) vs panel of normal tissues; for Expression score OC: ovarian cancer (N = 12) vs panel of normal tissues; for Expression score SCLC: small cell lung cancer (N = 10) vs panel of normal tissues
[3] = Table 13A, cancer entities on which the peptide was found presented
[4] = cutoff more than 2-fold above highest 75% percentile of normal tissue samples

| Substance | Peptide Presentation on cancer entities (HLA-A*02; [3]) | Target coverage: over-expression category of source gene, LAML (source genes (mRNA) [1]; [4]) | Target coverage: over-expression category of source gene, BLCA (source genes (mRNA) [1]; [4]) | Target coverage: over-expression category of source gene, BRCA (source genes (mRNA) [1]) | Target coverage: over-expression category of source gene, READ (source genes (mRNA) [1]; [4]) | Target coverage: over-expression category of source gene, COAD (source genes (mRNA) [1]; [4]) | Target coverage: over-expression category of source gene, ESCA (source genes (mRNA) [1]; [4]) | Target coverage: over-expression category of source gene, KICH (source genes (mRNA) [1]; [4]) | Target coverage: over-expression category of source gene, LUAD (source genes (mRNA) [1]; [4]) | Target coverage: over-expression category of source gene, LUSC (source genes (mRNA) [1]; [4]) | Target coverage: over-expression category of source gene, DLBC (source genes (mRNA) [1]; [4]) | Target coverage: over-expression category of source gene, OV (source genes (mRNA) [1]; [4]) | Target coverage: over-expression category of source gene, SKCM (source genes (mRNA) [1]; [4]) | Target coverage: over-expression category of source gene, STAD (source genes (mRNA) [1]; [4]) | Target coverage: over-expression category of source gene, UCEC (source genes (mRNA) [1]; [4]) | Expression score OSCAR (source genes (mRNA) [2]) | Expression score GB (source genes (mRNA) [2]) | Expression score NHL (source genes (mRNA) [2]) | Expression score NSCLC (source genes (mRNA) [2]) | Expression score OC (source genes (mRNA) [2]) | other results |
| --- | --- | --- | --- | --- | --- | --- | --- | --- | --- | --- | --- | --- | --- | --- | --- | --- | --- | --- | --- | --- | --- |
| 111: peptide found in NUP210 (gene looked up) (AIVDLIHDI; listed as Homo sapiens) [compound 111] | GC, NSCLC, OSCAR | A (>=50% of tumors above the cutoff) | C (>=5% of tumors above the cutoff, but <20%) | B (>= 20% of tumors above the cutoff, but <50%) | B (>= 20% of tumors above the cutoff, but <50%) | B (>= 20% of tumors above the cutoff, but <50%) | B (>= 20% of tumors above the cutoff, but <50%) | C (>=5% of tumors above the cutoff, but <20%) | B (>= 20% of tumors above the cutoff, but <50%) | B (>= 20% of tumors above the cutoff, but <50%) | B (>= 20% of tumors above the cutoff, but <50%) | A (>=50% of tumors above the cutoff) | B (>= 20% of tumors above the cutoff, but <50%) | B (>= 20% of tumors above the cutoff, but <50%) | B (>= 20% of tumors above the cutoff, but <50%) | + | + | +++ | ++ | ++ | Presentation score OSCAR (HLA-A*02; HLA-A*02 peptides): ++++; Presentation score GC (HLA-A*02; HLA-A*02 peptides): ++++; Presentation score NSCLC (HLA-A*02; HLA-A*02 peptides, non-small cell lung cancer (N = 90) vs panel of normal tissues (N = 262)): ++++; Target coverage: over-expression category of source gene, PRAD (source genes (mRNA) [1]; [4]): C (>=5% of tumors above the cutoff, but <20%); Expression score BRCA (source genes (mRNA) [2]): +; Expression score AML (source genes (mRNA) [2]): +++; Expression score CLL (source genes (mRNA) [2]; chronic lymphocytic leukemia (N = 10) vs panel of normal tissues): ++; Expression score SCLC (source genes (mRNA) [2]): ++ |
| 116: peptide found in RACGAP1 (gene looked up) (TIDESGSIL; listed as Homo sapiens) [compound 116] | UBC, NHL | A (>=50% of tumors above the cutoff) | A (>=50% of tumors above the cutoff) | A (>=50% of tumors above the cutoff) | A (>=50% of tumors above the cutoff) | A (>=50% of tumors above the cutoff) | A (>=50% of tumors above the cutoff) | C (>=5% of tumors above the cutoff, but <20%) | B (>= 20% of tumors above the cutoff, but <50%) | A (>=50% of tumors above the cutoff) | A (>=50% of tumors above the cutoff) | A (>=50% of tumors above the cutoff) | A (>=50% of tumors above the cutoff) | A (>=50% of tumors above the cutoff) | B (>= 20% of tumors above the cutoff, but <50%) | + | + | + | ++ | + | Presentation score NHL (HLA-A*02; HLA-A*02 peptides, non-Hodgkin lymphoma (N = 18) vs panel of normal tissues (N = 262)): ++++; Presentation score UBC (HLA-A*02; HLA-A*02 peptides, urinary bladder cancer (N = 16) vs panel of normal tissues (N = 262)): ++++; Peptide Presentation on cancer entities (HLA-A*02; Table 13B, presentation on additional cancer entities): MEL, AML; Target coverage: over-expression category of source gene, CHOL (source genes (mRNA) [1]; Cholangiocarcinoma (N = 36), cutoff more than 2-fold above highest 75% percentile of normal tissue samples): C (>=5% of tumors above the cutoff, but <20%); Target coverage: over-expression category of source gene, GBM (source genes (mRNA) [1]; [4]): A (>=50% of tumors above the cutoff); Target coverage: over-expression category of source gene, LIHC (source genes (mRNA) [1]; Liver hepatocellular carcinoma (N = 374), cutoff more than 2-fold above highest 75% percentile of normal tissue samples): C (>=5% of tumors above the cutoff, but <20%); Target coverage: over-expression category of source gene, LGG (source genes (mRNA) [1]; [4]): C (>=5% of tumors above the cutoff, but <20%); Expression score BRCA (source genes (mRNA) [2]): +; Expression score CRC (source genes (mRNA) [2]; colorectal cancer (N = 20) vs panel of normal tissues): +; Expression score SCLC (source genes (mRNA) [2]): ++; Expression score UBC (source genes (mRNA) [2]; urinary bladder cancer (N = 10) vs panel of normal tissues): + |
| 120: peptide found in HCFC1 (gene looked up) (VTPVTVSAV; listed as Homo sapiens) [compound 120] | GC, OSCAR | A (>=50% of tumors above the cutoff) | C (>=5% of tumors above the cutoff, but <20%) | C (>=5% of tumors above the cutoff, but <20%) | B (>= 20% of tumors above the cutoff, but <50%) | B (>= 20% of tumors above the cutoff, but <50%) | A (>=50% of tumors above the cutoff) | C (>=5% of tumors above the cutoff, but <20%) | C (>=5% of tumors above the cutoff, but <20%) | B (>= 20% of tumors above the cutoff, but <50%) | B (>= 20% of tumors above the cutoff, but <50%) | A (>=50% of tumors above the cutoff) | B (>= 20% of tumors above the cutoff, but <50%) | A (>=50% of tumors above the cutoff) | B (>= 20% of tumors above the cutoff, but <50%) | + | + | + | + | + | Presentation score OSCAR (HLA-A*02; HLA-A*02 peptides): ++++; Presentation score GC (HLA-A*02; HLA-A*02 peptides): ++++; Target coverage: over-expression category of source gene, GBM (source genes (mRNA) [1]; [4]): C (>=5% of tumors above the cutoff, but <20%); Target coverage: over-expression category of source gene, LGG (source genes (mRNA) [1]; [4]): B (>= 20% of tumors above the cutoff, but <50%); Target coverage: over-expression category of source gene, KIRP (source genes (mRNA) [1]; Papillary kidney carcinoma (N = 291), cutoff more than 2-fold above highest 75% percentile of normal tissue samples): C (>=5% of tumors above the cutoff, but <20%); Target coverage: over-expression category of source gene, PRAD (source genes (mRNA) [1]; [4]): C (>=5% of tumors above the cutoff, but <20%); Expression score AML (source genes (mRNA) [2]): +; Expression score SCLC (source genes (mRNA) [2]): + |

For part of these data: Expression values are those of the mRNA of the gene that encodes the peptide; a gene is named only where it was looked up.
